Results are given in words; binding and its absence hold for the method and conditions named. Binding seen in cells or lysates may run through a third protein. Some entries that bind do so weakly or less than the wild type.
Biological target: SENP3 (Sentrin-specific protease 3) (mouse (endogenous in primary Sertoli cells)) (UniProt Q9EP97)
Experiment: co-IP; endogenous proteins in primary mouse Sertoli cell lysate (10 mM Tris, 150 mM NaCl, 1% NP-40, 10% glycerol, pH 7.4); immunoprecipitation with anti-SENP3 antibody, rabbit IgG as negative control, 4°C overnight; protein A/G-Sepharose beads; immunoblot

Protein sequences, listed by entry. Tags and fused reporters are not part of them.
UniProt Q9EP97: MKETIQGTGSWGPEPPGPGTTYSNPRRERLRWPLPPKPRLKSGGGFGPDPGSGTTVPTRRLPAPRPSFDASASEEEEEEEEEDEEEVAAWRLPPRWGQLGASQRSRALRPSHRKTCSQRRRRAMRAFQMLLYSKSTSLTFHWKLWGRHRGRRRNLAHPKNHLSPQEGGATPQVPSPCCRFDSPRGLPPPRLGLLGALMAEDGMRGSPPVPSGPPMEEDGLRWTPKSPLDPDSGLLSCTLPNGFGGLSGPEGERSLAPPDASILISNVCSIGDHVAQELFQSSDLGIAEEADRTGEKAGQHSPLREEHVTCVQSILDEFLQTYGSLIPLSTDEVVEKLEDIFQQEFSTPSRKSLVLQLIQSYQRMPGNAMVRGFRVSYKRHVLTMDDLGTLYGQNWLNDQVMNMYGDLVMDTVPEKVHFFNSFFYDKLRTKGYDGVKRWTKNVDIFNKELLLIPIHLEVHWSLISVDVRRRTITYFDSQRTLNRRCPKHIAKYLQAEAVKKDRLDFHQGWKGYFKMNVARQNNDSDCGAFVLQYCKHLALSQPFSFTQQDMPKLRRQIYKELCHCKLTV
UniProt P42227: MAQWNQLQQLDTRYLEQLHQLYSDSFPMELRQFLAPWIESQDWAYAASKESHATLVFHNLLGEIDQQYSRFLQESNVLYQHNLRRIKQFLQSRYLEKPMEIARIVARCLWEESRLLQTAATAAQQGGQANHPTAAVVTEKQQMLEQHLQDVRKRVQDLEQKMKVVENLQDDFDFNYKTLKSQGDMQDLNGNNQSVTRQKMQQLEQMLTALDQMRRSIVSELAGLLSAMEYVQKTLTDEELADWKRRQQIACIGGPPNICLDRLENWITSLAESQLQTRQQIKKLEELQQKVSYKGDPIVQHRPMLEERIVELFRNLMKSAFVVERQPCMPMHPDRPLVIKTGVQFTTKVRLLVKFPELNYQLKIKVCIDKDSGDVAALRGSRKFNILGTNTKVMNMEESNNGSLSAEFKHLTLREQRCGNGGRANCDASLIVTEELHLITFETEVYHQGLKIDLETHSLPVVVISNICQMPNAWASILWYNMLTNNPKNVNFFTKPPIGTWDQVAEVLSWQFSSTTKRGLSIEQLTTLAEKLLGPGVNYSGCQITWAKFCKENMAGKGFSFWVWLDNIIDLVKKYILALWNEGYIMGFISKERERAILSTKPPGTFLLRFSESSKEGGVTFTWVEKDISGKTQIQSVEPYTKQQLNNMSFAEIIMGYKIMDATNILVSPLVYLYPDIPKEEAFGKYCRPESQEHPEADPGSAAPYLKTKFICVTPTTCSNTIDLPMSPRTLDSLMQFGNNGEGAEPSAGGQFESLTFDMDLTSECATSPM

binding: binds
Substance: STAT3 (from UniProt P42227 1-770)
